Patent US20090012046A1, “Methods of Treating Mutated Hiv” (priority 2006, published 2009)
For some assays here: At least one compound was matched to its structure with a doubt left. Some of these results come from one statement about several compounds together.

Columns and labels:
HIV-1 IIIB = experiment: In vitro selection of viral strains resistant to RT inhibitors in MT4-LTR-EGFP cells; assay type: cell-based; conditions: NcRTI-1: prolonged exposure (190 days)
Source text: To in vitro select viral strains resistant to RT inhibitors, MT4-LTR-EGFP cells were infected in the presence of the inhibitor (at 2 or 3 times EC50). Cultures were passaged every 3 to 4 days at the same concentration of inhibitor, until full virus breakthrough. At that time, virus was harvested and used for a new round of selection at a higher compound concentration. At each breakthrough, the harvested virus was genotyped to identify acquired mutations. For several RT inhibitors, alone or in combination, the mutations selected when replicating wild type HIV-1 (IIIB) in their presence, were determined (see Table 3).

[1] = system: HIV-1 strain with RT mutation M184V; experiment: Susceptibility of site-directed mutant strain; assay type: cell-based; conditions: SDM strain M184V
Source text: Site-directed mutant RT coding sequences were generated from a pGEM vector containing the HIV-1 clone HXB2 protease and RT coding sequence by using a QuikChange™ site-directed mutagenesis kit, and HPLC-purified primers. Plasmids were sequenced to confirm that they contained the desired mutations. Mutant viruses were created by recombination of the mutant protease-RT sequence with a protease-RT deleted HIV-1 HXB2 proviral clone^2.

Nc1ccn([C@@H]2CS[C@H](CO)O2)c(=O)n1 [3TC, lamivudine]
selection of the K65R mutation when combined with TDF (HIV-1 IIIB): the K65R mutation was selected | Fold change [1]: > 100
